Experimental data: PubChem BioAssay AID1259425 (University of Nebraska Medical Center, 2018)
In all, the deposit lists about 14,000 reagents; this is an unselected part. The record does not give: the time to read-out.

- Aim: 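Find knockdowns that reproduce the gene expression pattern seen when KSR1 is lost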 (primary screen)
- System: HCT116 human colon cancer cells
- Reagents: siRNA pool against human genes, 50 nM siRNA
- Detection: 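After 50 nM siRNA pool, branched-DNA assay measures six marker transcripts per well, minus blank, normalised to the geometric mean of two housekeeping transcripts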
- Reading the numbers: BNIP3L mRNA: higher = more BNIP3L transcript after knockdown; NDRG1 mRNA: higher = more NDRG1 transcript after knockdown; BNIP3 mRNA: higher = more BNIP3 transcript after knockdown; ALDOC mRNA: higher = more ALDOC transcript after knockdown; ACSL5 mRNA: higher = more ACSL5 transcript after knockdown

| BNIP3L mRNA, set 1 | NDRG1 mRNA, set 1 | BNIP3 mRNA, set 1 | ALDOC mRNA, set 1 | ACSL5 mRNA, set 1 | Gene |
| --- | --- | --- | --- | --- | --- |
| 0.0563 | 0.104 | 0.258 | 0.0183 | 0.155 | DST (dystonin) |
| 0.0625 | 0.126 | 0.295 | 0.0168 | 0.19 | THADA (THADA armadillo repeat containing) |
| 0.0435 | 0.264 | 0.166 | 0.00924 | 0.404 | MST1R (macrophage stimulating 1 receptor) |
| 0.179 | 0.352 | 0.247 | 0.0266 | 0.113 | POGZ (pogo transposable element derived with ZNF domain) |
| 0.0787 | 0.0908 | 0.32 | 0.0168 | 0.113 | KIR3DL2 |
| 0.081 | 0.116 | 0.247 | 0.00777 | 0.111 | ATXN3 (ataxin 3) |
| 0.0654 | 0.19 | 0.235 | 0.00516 | 0.23 | FAM3A (FAM3 metabolism regulating signaling molecule A) |
| 0.0587 | 0.102 | 0.242 | 0.0304 | 0.156 | DNALI1 (dynein axonemal light intermediate chain 1) |
| 0.105 | 0.291 | 0.383 | 0.0296 | 0.118 | ZNF263 (zinc finger protein 263) |
| 0.133 | 0.651 | 0.253 | 0.0716 | 0.142 | GAREM1 (GRB2 associated regulator of MAPK1 subtype 1) |
| 0.272 | 0.346 | 0.268 | 0.128 | 0.46 | MIEN1 (migration and invasion enhancer 1) |
| 0.0407 | 0.0954 | 0.147 | 0.0154 | 0.132 | TFPI (tissue factor pathway inhibitor) |
| 0.0846 | 0.187 | 0.299 | 0.0307 | 0.221 | FHOD1 (formin homology 2 domain containing 1) |
| 0.13 | 0.895 | 0.542 | 0.38 | 0.175 | INTS8 (integrator complex subunit 8) |
| 0.106 | 0.299 | 0.294 | 0.0268 | 0.201 | EHD3 (EH domain containing 3) |
| 0.1 | 0.105 | 0.378 | 0.0341 | 0.0857 | EPB41L5 (erythrocyte membrane protein band 4.1 like 5) |
| 0.0632 | 0.147 | 0.247 | 0.0238 | 0.132 | RAB6A (RAB6A, member RAS oncogene family) |

Reformatted: 5 of the entries above
BNIP3L mRNA, set 1	NDRG1 mRNA, set 1	BNIP3 mRNA, set 1	ALDOC mRNA, set 1	ACSL5 mRNA, set 1	Gene
0.105	0.291	0.383	0.0296	0.118	ZNF263 (zinc finger protein 263)
0.133	0.651	0.253	0.0716	0.142	GAREM1 (GRB2 associated regulator of MAPK1 subtype 1)
0.272	0.346	0.268	0.128	0.46	MIEN1 (migration and invasion enhancer 1)
0.0407	0.0954	0.147	0.0154	0.132	TFPI (tissue factor pathway inhibitor)
0.0846	0.187	0.299	0.0307	0.221	FHOD1 (formin homology 2 domain containing 1)

The results go on.
| BNIP3L mRNA, set 1 | NDRG1 mRNA, set 1 | BNIP3 mRNA, set 1 | ALDOC mRNA, set 1 | ACSL5 mRNA, set 1 | Gene |
| --- | --- | --- | --- | --- | --- |
| 0.0777 | 0.19 | 0.257 | 0.0966 | 0.144 | SERPINB13 (serpin family B member 13) |
| 0.094 | 0.136 | 0.24 | 0.0275 | 0.116 | ACE (angiotensin I converting enzyme) |
| 0.0739 | 0.156 | 0.239 | 0.0132 | 0.224 | PCDH7 (protocadherin 7) |
| 0.244 | 0.45 | 0.334 | 0.0593 | 0.341 | TSPAN10 (tetraspanin 10) |
| 0.0638 | 0.208 | 0.273 | 0.0295 | 0.23 | ABCA12 (ATP binding cassette subfamily A member 12) |
| 0.101 | 0.125 | 0.292 | 0.0266 | 0.124 | SMARCA4 |
| 0.0356 | 0.254 | 0.123 | 0.028 | 0.129 | TTC39A (tetratricopeptide repeat domain 39A) |
| 0.133 | 0.0962 | 0.285 | 0.0483 | 0.135 | PRLHR (prolactin releasing hormone receptor) |
| 0.0942 | 0.212 | 0.369 | 0.0595 | 0.133 | HEATR3 (HEAT repeat containing 3) |
| 0.0872 | 0.067 | 0.268 | 0.0318 | 0.0879 | MSR1 (macrophage scavenger receptor 1) |
| 0.249 | 0.327 | 0.474 | 0.0308 | 0.129 | ACAD10 (acyl-CoA dehydrogenase family member 10) |
| 0.13 | 1.78 | 0.391 | 0.0163 | 0.257 | MARCKS (myristoylated alanine rich protein kinase C substrate) |
| 0.102 | 0.144 | 0.39 | 0.0298 | 0.103 | SEMA3A (semaphorin 3A) |
| 0.219 | 0.235 | 0.438 | 0.0476 | 0.282 | NUPR1 (nuclear protein 1, transcriptional regulator) |
| 0.0982 | 0.124 | 0.362 | 0.0191 | 0.135 | RANGRF (RAN guanine nucleotide release factor) |
| 0.148 | 0.0559 | 0.282 | 0.0299 | 0.102 | IFT140 (intraflagellar transport 140) |
| 0.149 | 0.194 | 0.251 | 0.015 | 0.234 | BRK1 (BRICK1 subunit of SCAR/WAVE actin nucleating complex) |
| 0.173 | 0.181 | 0.47 | 0.0338 | 0.275 | NUDCD1 (NudC domain containing 1) |
| 0.103 | 0.162 | 0.288 | 0.0465 | 0.269 | CGB2 (chorionic gonadotropin subunit beta 2) |
| 0.12 | 0.229 | 0.222 | 0.0371 | 0.24 | CSF2RB (colony stimulating factor 2 receptor subunit beta) |
| 0.107 | 0.152 | 0.248 | 0.046 | 0.157 | CLTRN (collectrin, amino acid transport regulator) |
| 0.0656 | 0.233 | 0.228 | 0.018 | 0.0566 | CRYM (crystallin mu) |
| 0.156 | 0.0906 | 0.292 | 0.0506 | 0.101 | ZCWPW1 (zinc finger CW-type and PWWP domain containing 1) |
| 0.133 | 0.265 | 0.273 | 0.0606 | 0.494 | SYDE2 (synapse defective Rho GTPase homolog 2) |
| 0.261 | 0.19 | 0.504 | 0.123 | 0.19 | DDX59 (DEAD-box helicase 59) |
| 0.0946 | 0.0674 | 0.193 | 0.0115 | 0.137 | DLX1 (distal-less homeobox 1) |
| 0.0863 | 0.277 | 0.363 | 0.022 | 0.117 | DIO3 (iodothyronine deiodinase 3) |
| 0.188 | 0.349 | 0.381 | 0.0588 | 0.371 | RUBCNL (rubicon like autophagy enhancer) |
| 0.0759 | 0.178 | 0.318 | 0.011 | 0.411 | LEMD3 (LEM domain containing 3) |
| 0.552 | 0.563 | 0.365 | 0.287 | 0.42 | FBXO30 (F-box protein 30) |
| 0.117 | 0.148 | 0.184 | 0.0351 | 0.175 | TSPAN17 (tetraspanin 17) |
| 0.143 | 0.527 | 0.383 | 0.00692 | 0.113 | MRC2 (mannose receptor C-type 2) |
| 0.0667 | 0.0807 | 0.238 | 0.0149 | 0.111 | UBE2J2 (ubiquitin conjugating enzyme E2 J2) |
